Source: PubChem BioAssay AID330 (DTP/NCI, 2004)
The list shows only some results of the screen, not a fair sample: it is rich in T/C values a quarter to a half above the control, in often repeated tests (any T/C) and in doses without a T/C. Further doses and runs are listed elsewhere. T/C is the treated group as % of the vehicle group. Some entries give survivors of the animals treated and no T/C: the source holds a T/C of zero for them, seemingly a mark for toxic or unscored doses. Some survivor counts are full or nearly so, which does not show that the dose was tolerated: the source hardly ever lists a survival T/C far under the control, and the zero likely stands for such cases as well. Survivors were counted at the toxicity check, usually on the fifth day, unless a day is given; later deaths do not show. Schedules are NCI's codes, taken here to give the interval after Q, in days (D) or hours (H), and the number of doses after X. Some entries were tested several times; the values are given in rising order. Where survival is the endpoint, the PubChem record calls one and a half times the control and up active, and a quarter to a half above the control has no call in these data; cut-offs in other NCI protocols can differ. Some T/C values are followed by the survivors on the day toxicity was checked, most often the fifth; where none is given, no animal had died by that day.

Tested on: P388 leukemia ip, CD2F1 mice, survival T/C
Assay: NCI In Vivo Anticancer Drug Screen. Data for tumor model P388 Leukemia (intraperitoneal) in CD2F1 (CDF1) mice
Conditions: T/C endpoint: median survival time, higher T/C = longer survival
[1] = dose: 30.0 mg/kg/injection, schedule: Q01DX005 (ip), vehicle: saline with Tween-80
[2] = dose: 60.0 mg/kg/injection, schedule: Q01DX005 (ip), vehicle: saline with Tween-80
[3] = dose: 240.0 mg/kg/injection, schedule: Q01DX005 (ip), vehicle: saline with Tween-80
[4] = dose: 50.0 mg/kg/injection, schedule: Q01DX009 (ip), vehicle: Klucel (hydroxypropylcellulose) (HPC)
[5] = dose: 100.0 mg/kg/injection, schedule: Q01DX009 (ip), vehicle: saline with Tween-80
[6] = dose: 200.0 mg/kg/injection, schedule: Q01DX009 (ip), vehicle: saline with Tween-80
[7] = dose: 100.0 mg/kg/injection, schedule: Q01DX005 (ip), vehicle: saline
[8] = dose: 200.0 mg/kg/injection, schedule: Q01DX005 (ip), vehicle: saline
[9] = dose: 400.0 mg/kg/injection, schedule: Q04DX003 (ip), vehicle: saline with Tween-80
[10] = dose: 200.0 mg/kg/injection, schedule: Q01DX005 (ip), vehicle: Klucel (hydroxypropylcellulose) (HPC)

## c1ccc2cc(OCC3CO3)c(OCC3CO3)cc2c1 (stereo not drawn)
[1]
  T/C: 136 % of control
[2]
  T/C: 141 % of control

## COC(=O)C1C(=O)CC2N(C)C1C(C)(C)C2(C)C (stereo not drawn)
[1]
  T/C: 134 % of control
[2]
  T/C: 133 and 145 % of control
dose: 120.0 mg/kg/injection, schedule: Q01DX005 (ip), vehicle: saline with Tween-80
  T/C: 140 % of control
[3]
  survivor count: 1 of 6 and 2 of 6

## Cc1cc(C)cc(NCCC#N)c1
dose: 400.0 mg/kg/injection, schedule: Q04DX003 (ip), vehicle: other
  survivor count: 5 of 6

## CCCCCCCC/C=C\CCCCCCCCSC1=CC(=O)C(OC)=C(OC)C1=O
[4]
  survivor count: 4 of 6

## N#Cc1nnn(Cc2ccccc2)c1N
[5]
  survivor count: 4 of 6
[6]
  survivor count: 0 of 6

## CCn1cnc2c(SC3CCCC3)ncnc21
dose: 400.0 mg/kg/injection, schedule: Q01DX009 (ip), vehicle: saline sonified
  survivor count: 5 of 6

## COC12CCCC3(OCCO3)C1C(Cl)C2Cl (stereo not drawn)
[3]
  survivor count: 6 of 6

## CN(C)CCOc1ccccc1NC1=C(Cl)C(=O)C(Nc2ccccc2OCCN(C)C)=C(Cl)C1=O
dose: 50.0 mg/kg/injection, schedule: Q01DX005 (ip), vehicle: saline
  survivor count: 2 of 6 and 2 of 5
[7]
  survivor count: 0 of 5
[8]
  survivor count: 0 of 5

## O=C(NNC(O)C(F)(F)F)c1ccccc1F (stereo not drawn)
dose: 200.0 mg/kg/injection, schedule: Q04DX002 (ip), vehicle: Klucel (hydroxypropylcellulose) (HPC)
  survivor count: 1 of 6
dose: 400.0 mg/kg/injection, schedule: Q04DX002 (ip), vehicle: Klucel (hydroxypropylcellulose) (HPC)
  survivor count: 0 of 6

## C=C1C(=O)CCC1C#N (stereo not drawn)
dose: 400.0 mg/kg/injection, schedule: Q04DX002 (ip), vehicle: suspension in saline
  survivor count: 1 of 6

## Ic1ccc(N=Cc2ccc(C=Nc3ccc(I)cc3)cc2)cc1
[4]
  survivor count: 6 of 6

## S=c1[nH]cc2cnccn12
[9]
  survivor count: 0 of 6

## CCC[CH2][Sn]([F])([F])[CH2]CCC
dose: 100.0 mg/kg/injection, schedule: Q04DX003 (ip), vehicle: saline
  survivor count: 0 of 6
dose: 200.0 mg/kg/injection, schedule: Q04DX003 (ip), vehicle: saline
  survivor count: 0 of 6
dose: 400.0 mg/kg/injection, schedule: Q04DX003 (ip), vehicle: saline
  survivor count: 0 of 6

## C[Si](C)(C)n1nnn(-c2ccccc2)c1=O
dose: 12.5 mg/kg/injection, schedule: Q01DX009 (ip), vehicle: saline with Tween-80
  T/C: 141 % of control
dose: 25.0 mg/kg/injection, schedule: Q01DX009 (ip), vehicle: saline with Tween-80
  T/C: 128 % of control
[5]
  T/C: 126 % of control
[6]
  T/C: 126 % of control [4 of 6 alive]
dose: 400.0 mg/kg/injection, schedule: Q01DX009 (ip), vehicle: saline with Tween-80
  survivor count: 1 of 6

## COc1cc([N+](=O)[O-])c(S(=O)(=O)O)cc1N=N/C(=N/Nc1cc(S(=O)(=O)O)c([N+](=O)[O-])cc1OC)C(=O)Nc1ccccc1
[10]
  survivor count: 6 of 6

## COc1ccc(C(C#N)N2CCCC2)cc1 (stereo not drawn)
dose: 25.0 mg/kg/injection, schedule: Q04DX003 (ip), vehicle: other
  survivor count: 4 of 6

## CCOC(=O)N1CCN(c2cc(C)nc3cc(OC)ccc23)CC1
[3]
  survivor count: 4 of 6

## CCOC(=O)c1ccc(N(CCOS(C)(=O)=O)CCOS(C)(=O)=O)cc1
[9]
  survivor count: 6 of 6

## O=C1NC(=O)C(F)(F)C(O)N1 (stereo not drawn)
dose: 28.0 mg/kg/injection, schedule: Q01DX009 (ip), vehicle: saline
  T/C: 140 % of control
dose: 40.0 mg/kg/injection, schedule: Q01DX009 (ip), vehicle: saline
  T/C: 145 % of control
dose: 65.0 mg/kg/injection, schedule: Q01DX009 (ip), vehicle: saline sonified
  T/C: 145 % of control

## NC(C(=O)O)C1C=CCC1 (stereo not drawn)
[10]
  survivor count: 1 of 6

## CC(O)CC(O)CC1CCCO1 (stereo not drawn)
[7]
  survivor count: 5 of 5
[8]
  survivor count: 5 of 5
